Measurements reported in article doi:10.1101/2025.06.08.658527.
Results are given in words; binding and its absence hold for the method and conditions named. Some binding calls cover weakened binding; strength is not graded here.

Sequences of proteins named here, by UniProt entry; tags and fusion partners are left off. Residues count along the entry.
UniProt P51668, residues 2-147: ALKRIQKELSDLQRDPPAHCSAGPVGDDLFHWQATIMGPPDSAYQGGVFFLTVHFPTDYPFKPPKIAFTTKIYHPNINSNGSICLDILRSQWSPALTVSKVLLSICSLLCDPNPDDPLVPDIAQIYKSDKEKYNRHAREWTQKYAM
UniProt P62877, residues 2-108: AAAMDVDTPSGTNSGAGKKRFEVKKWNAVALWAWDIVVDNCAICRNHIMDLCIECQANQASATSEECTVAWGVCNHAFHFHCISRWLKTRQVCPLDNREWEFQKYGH

Target: UbcH5a (UniProt P51668)
Experiment: cryo-EM structure

With RBX1 (from UniProt P62877) (enzyme) the binding was “binds”.
